The record followed here is PMC12008848.

The assay addresses T1, Flag-TRIM27 (tripartite motif-containing 27, wild type) (UniProt P14373).
T1 sequence: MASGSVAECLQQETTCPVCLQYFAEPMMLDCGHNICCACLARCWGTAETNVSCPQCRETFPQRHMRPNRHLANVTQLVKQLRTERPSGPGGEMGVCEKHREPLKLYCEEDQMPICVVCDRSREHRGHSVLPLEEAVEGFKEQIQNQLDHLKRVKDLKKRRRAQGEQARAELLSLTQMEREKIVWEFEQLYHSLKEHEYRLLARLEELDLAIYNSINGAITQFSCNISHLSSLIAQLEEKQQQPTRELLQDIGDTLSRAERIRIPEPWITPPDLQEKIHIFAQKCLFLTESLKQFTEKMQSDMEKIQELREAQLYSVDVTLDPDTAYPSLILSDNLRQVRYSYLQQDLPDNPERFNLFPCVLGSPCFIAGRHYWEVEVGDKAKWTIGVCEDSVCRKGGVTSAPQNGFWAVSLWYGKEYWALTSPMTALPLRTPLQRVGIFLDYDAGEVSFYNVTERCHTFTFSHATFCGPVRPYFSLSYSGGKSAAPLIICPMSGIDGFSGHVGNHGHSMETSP
In words: co-IP; 293T cells transfected with Myc-TAB2 and Flag-TRIM27 or Flag-TRIM27-ΔR; lysates immunoprecipitated with anti-Flag, blotted with anti-Flag or anti-Myc; extraction buffer 50 mM Tris-HCl pH 8.0, 150 mM NaCl, 1 mM EDTA, 0.5% Nonidet P40.

No constants are given. Whether binding was seen depends on the method and setting. In cells and extracts the contact can be indirect. Some binding calls cover weakened binding; strength is not graded here. Sequences can lack the tags named with a protein.

B1: Myc-TAB2 (TAK1 binding protein 2) (protein, UniProt Q9NYJ8 1-693)
chain: MAQGSHQIDFQVLHDLRQKFPEVPEVVVSRCMLQNNNNLDACCAVLSQESTRYLYGEGDLNFSDDSGISGLRNHMTSLNLDLQSQNIYHHGREGSRMNGSRTLTHSISDGQLQGGQSNSELFQQEPQTAPAQVPQGFNVFGMSSSSGASNSAPHLGFHLGSKGTSSLSQQTPRFNPIMVTLAPNIQTGRNTPTSLHIHGVPPPVLNSPQGNSIYIRPYITTPGGTTRQTQQHSGWVSQFNPMNPQQVYQPSQPGPWTTCPASNPLSHTSSQQPNQQGHQTSHVYMPISSPTTSQPPTIHSSGSSQSSAHSQYNIQNISTGPRKNQIEIKLEPPQRNNSSKLRSSGPRTSSTSSSVNSQTLNRNQPTVYIAASPPNTDELMSRSQPKVYISANAATGDEQVMRNQPTLFISTNSGASAASRNMSGQVSMGPAFIHHHPPKSRAIGNNSATSPRVVVTQPNTKYTFKITVSPNKPPAVSPGVVSPTFELTNLLNHPDHYVETENIQHLTDPTLAHVDRISETRKLSMGSDDAAYTQALLVHQKARMERLQRELEIQKKKLDKLKSEVNEMENNLTRRRLKRSNSISQIPSLEEMQQLRSCNRQLQIDIDCLTKEIDLFQARGPHFNPSAIHNFYDNIGFVGPVPPKPKDQRSIIKTPKTQDTEDDEGAQWNCTACTFLNHPALIRCEQCEMPRHF
In the case of B1, the binding entry is recorded as “binds”.
